Laboratory results taken from patent publication US20150291681A1 (published 2015).
No constants are given. Whether binding was seen depends on the method and setting. Some entries that bind do so weakly or less than the wild type. Where a sequence is shown, tags or fusion partners need not be part of it.

Chains of the proteins cited; added tags and fusions are not shown. Residues count along the entry.
UniProt P07207, residues 53-2703: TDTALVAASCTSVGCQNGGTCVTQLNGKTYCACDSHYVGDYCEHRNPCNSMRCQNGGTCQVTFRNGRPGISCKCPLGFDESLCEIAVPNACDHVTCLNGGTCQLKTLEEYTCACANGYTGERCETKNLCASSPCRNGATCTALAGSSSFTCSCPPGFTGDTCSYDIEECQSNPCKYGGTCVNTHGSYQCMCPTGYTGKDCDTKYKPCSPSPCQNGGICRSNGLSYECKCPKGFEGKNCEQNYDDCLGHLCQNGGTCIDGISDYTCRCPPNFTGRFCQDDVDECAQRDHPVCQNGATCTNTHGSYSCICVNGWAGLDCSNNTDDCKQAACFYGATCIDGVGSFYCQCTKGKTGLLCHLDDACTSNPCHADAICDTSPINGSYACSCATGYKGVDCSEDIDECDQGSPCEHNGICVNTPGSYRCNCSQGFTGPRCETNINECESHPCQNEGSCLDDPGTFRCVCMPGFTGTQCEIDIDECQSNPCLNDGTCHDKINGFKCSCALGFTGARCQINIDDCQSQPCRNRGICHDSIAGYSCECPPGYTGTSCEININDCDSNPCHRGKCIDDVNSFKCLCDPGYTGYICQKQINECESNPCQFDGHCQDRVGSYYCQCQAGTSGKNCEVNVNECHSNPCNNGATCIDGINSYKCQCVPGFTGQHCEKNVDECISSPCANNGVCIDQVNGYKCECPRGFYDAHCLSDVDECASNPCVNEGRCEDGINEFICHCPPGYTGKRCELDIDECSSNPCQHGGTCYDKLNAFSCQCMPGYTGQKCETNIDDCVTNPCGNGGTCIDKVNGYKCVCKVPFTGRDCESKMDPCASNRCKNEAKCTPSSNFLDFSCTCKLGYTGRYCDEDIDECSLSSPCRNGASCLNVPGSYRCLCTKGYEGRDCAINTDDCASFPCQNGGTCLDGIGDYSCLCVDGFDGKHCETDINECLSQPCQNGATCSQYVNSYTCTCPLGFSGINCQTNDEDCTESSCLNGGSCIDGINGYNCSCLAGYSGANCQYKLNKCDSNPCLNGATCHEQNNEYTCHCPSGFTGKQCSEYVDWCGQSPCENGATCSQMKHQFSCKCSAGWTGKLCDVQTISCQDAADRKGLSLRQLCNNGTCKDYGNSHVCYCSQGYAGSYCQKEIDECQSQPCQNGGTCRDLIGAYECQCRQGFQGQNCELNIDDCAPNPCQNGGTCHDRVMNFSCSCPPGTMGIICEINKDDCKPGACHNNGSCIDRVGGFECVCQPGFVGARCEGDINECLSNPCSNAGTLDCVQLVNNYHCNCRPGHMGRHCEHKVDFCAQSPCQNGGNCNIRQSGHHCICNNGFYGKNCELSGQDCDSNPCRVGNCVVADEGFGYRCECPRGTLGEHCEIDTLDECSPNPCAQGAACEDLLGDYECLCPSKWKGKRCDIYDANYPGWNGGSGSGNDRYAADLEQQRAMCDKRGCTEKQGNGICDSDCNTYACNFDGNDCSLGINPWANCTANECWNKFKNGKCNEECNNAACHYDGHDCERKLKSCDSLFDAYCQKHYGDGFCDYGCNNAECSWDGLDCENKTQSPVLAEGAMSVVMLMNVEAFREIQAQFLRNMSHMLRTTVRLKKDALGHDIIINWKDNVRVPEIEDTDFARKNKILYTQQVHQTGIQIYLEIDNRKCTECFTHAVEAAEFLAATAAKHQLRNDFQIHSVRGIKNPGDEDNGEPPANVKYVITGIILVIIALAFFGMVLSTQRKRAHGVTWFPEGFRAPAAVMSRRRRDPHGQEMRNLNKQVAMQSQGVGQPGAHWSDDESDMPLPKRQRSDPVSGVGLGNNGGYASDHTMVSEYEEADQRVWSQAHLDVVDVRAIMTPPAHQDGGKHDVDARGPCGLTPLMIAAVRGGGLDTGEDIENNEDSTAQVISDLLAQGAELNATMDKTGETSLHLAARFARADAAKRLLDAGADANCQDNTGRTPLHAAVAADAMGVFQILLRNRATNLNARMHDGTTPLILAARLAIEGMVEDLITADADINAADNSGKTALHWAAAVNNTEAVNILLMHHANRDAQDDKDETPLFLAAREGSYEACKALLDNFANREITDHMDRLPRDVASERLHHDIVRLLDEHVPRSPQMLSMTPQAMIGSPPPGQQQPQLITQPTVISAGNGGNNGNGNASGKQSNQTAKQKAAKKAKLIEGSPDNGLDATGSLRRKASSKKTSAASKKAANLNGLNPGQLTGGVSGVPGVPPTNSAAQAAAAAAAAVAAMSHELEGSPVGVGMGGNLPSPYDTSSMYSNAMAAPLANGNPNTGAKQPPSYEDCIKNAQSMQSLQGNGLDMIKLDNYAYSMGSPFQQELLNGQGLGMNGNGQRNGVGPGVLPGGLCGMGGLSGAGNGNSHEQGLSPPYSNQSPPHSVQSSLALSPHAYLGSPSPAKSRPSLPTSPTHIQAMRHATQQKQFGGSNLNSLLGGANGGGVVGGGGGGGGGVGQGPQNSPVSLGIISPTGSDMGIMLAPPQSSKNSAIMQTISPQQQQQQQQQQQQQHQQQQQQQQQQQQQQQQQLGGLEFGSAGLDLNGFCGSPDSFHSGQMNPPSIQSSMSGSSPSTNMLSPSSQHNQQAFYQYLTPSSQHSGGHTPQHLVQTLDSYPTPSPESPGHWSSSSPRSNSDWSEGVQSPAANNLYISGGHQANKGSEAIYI

Columns and labels:
[1] = molecular target: EGFP labeled Notch (Drosophila Notch stably expressed on S2 cells) (Drosophila) (UniProt P07207); assay: S2 cell aggregation; SerDel3 form transfected into Notch-EGFP cells (cis), mixed with Sertom cells
[2] = molecular target: EGFP labeled Notch (Drosophila Notch stably expressed on S2 cells) (Drosophila) (UniProt P07207); assay: S2 cell aggregation, cis competition
[3] = molecular target: EGFP labeled Notch (Drosophila Notch stably expressed on S2 cells) (Drosophila) (UniProt P07207); assay: S2 cell aggregation; SerDel3tom transfected into Notch-EGFP cells (cis), competitor of Sertom cells (trans)

Measured: binding

B1: SerDel3tom (tomato-tagged Ser lacking ELR 3) (ligand, not shown: small tags and cut ends)
chain: GNFELEILEISNTNSHLLNGYCCGMPAELRATKTIGCSPCTTAFRLCLKEYQTTEQGASISTGCSFGNATTKILGGSSFVLSDPGVGAIVLPFTFRWTKSFTLILQALDMYNTSYPDAERLIEETSYSGVILPSPEWKTLDHIGRNARITYRVRVQCAVTYYNTTCTTFCRPRDDQFGHYACGSEGQKLCLNGWQGVNCEEAICKAGCDPVHGKCDRPGECECRPGWRGPLCNECMVYPGCKHGSCNGSAWKCVCDTNWGGILCDQDLNFCATRPCRNGGTCTLKTSNRTQAQVYRTSHGRSNMGRPVRRSSSMRSLDHLRPEGQALNGSSSSGLVSLGSLQLQQQLAPDFTCDCAAGWTGPTCEINIDECAGGPCEHGGTCIDLIGGFRCECPPEWHGDVCQVDVNECEAPHSAGIAANALLTTTATAIIGSNLSSTALLAALTSAVASTSLAIGPCINAKECRNQPGSFACICKEGWGGVTCAENLDDCVGQCRNGATCIDLVNDYRCACASGFTGRDCETDIDECATSPCRNGGECVDMVGKFNCICPLGYSGSLCEEAKENCTPSPCLEGHCLNTPEGYYCHCPPDRAGKHCEQLRPLCSQPPCNEGCFANVSLATSATTTTTTTTTATTTRKMAKPSGLPCSGHGSCEMSDVGTFCKCHVGHTGTFCEHNLNECSPNPCRNGGICLDGDGDFTCECMSGWTGKRCSERATGCYAGQCQNGGTCMPGAPDKALQPHCRCAPGWTGLFCAEAIDQCRGQPCHNGGTCESGAGWFRCVCAQGFSGPDCRINVNECSPQPCQGGATCIDGIGGYSCICPPGRHGLRCEILLSDPKSACQNASNTISPYTALNRSQNWLDIALTGRTEDDENCNACVCENGTSRCTNLWCGLPNCYKVDPLSKSSNLSGVCKQHEVCVPALSETCLSSPCNVRGDCRALEPSRRVAPPRLPAKSSCWPNQAVVNENCARLTILLALERVGKGASVEGLCSLVRVLLAAQLIKKPASTFGQDPGMLMVLCDLKTGTNDTVELTVSSSKLNDPQLPVAVGLLGELLSSRQLNGIQRRKELELQHAKLAALTSIVEVKLETARVADGSGHSLLIGVLCGVFIVLVGFSVFISLYWKQRLAYRTSSGMNLTPSLDALRHEEEKSNNLQNEENLRRYTNPLKGSTSSLRAATGMELSLNPAPELAASAASSSALHRSQPLFPPCDFERELDSSTGLKQAHKRSSQILLHKTQNSDMRKNTVGSLDSPRKDFGKRSINCKSMPPSSGDEGSDVLATTVMV
binds: [1] | [2] | [3]
